Laboratory results: the supplement of paper PMC10060354, “Discovery of a small molecule ligand of FRS2 that inhibits invasion and tumor growth” (Cellular Oncology, 2022)

By UniProt entry, the sequences of proteins in these tests, tags left out. Where a name states a change or a piece, a line headed by the entry shows the natural chain unless it says otherwise.
UniProt Q14457, whole entry: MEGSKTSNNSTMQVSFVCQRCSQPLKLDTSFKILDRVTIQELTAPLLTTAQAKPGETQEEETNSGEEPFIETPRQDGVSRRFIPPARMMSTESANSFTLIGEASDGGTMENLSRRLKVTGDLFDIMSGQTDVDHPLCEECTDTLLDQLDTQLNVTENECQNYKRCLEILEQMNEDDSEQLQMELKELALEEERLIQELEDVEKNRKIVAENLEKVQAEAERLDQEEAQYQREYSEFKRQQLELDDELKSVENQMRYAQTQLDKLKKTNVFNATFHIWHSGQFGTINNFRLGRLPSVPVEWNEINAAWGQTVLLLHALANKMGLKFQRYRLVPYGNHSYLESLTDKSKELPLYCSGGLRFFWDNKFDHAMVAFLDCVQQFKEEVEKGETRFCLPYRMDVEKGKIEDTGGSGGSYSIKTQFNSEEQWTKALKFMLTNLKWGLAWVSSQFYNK
UniProt P20226, whole entry: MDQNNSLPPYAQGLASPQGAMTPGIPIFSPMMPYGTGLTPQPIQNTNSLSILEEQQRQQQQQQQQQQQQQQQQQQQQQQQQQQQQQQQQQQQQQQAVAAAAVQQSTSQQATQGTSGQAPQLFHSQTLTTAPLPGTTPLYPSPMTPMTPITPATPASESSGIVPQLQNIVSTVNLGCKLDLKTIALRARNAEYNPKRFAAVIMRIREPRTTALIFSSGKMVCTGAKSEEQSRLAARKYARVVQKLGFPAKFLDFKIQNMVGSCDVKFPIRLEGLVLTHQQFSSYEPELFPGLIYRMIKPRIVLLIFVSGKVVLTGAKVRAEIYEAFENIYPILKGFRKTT
UniProt Q86Y39, whole entry: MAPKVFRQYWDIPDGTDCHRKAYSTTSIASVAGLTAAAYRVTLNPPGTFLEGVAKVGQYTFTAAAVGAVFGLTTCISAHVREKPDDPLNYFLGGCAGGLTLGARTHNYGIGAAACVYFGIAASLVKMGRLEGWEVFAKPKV
UniProt P0DMV8, whole entry, looked up: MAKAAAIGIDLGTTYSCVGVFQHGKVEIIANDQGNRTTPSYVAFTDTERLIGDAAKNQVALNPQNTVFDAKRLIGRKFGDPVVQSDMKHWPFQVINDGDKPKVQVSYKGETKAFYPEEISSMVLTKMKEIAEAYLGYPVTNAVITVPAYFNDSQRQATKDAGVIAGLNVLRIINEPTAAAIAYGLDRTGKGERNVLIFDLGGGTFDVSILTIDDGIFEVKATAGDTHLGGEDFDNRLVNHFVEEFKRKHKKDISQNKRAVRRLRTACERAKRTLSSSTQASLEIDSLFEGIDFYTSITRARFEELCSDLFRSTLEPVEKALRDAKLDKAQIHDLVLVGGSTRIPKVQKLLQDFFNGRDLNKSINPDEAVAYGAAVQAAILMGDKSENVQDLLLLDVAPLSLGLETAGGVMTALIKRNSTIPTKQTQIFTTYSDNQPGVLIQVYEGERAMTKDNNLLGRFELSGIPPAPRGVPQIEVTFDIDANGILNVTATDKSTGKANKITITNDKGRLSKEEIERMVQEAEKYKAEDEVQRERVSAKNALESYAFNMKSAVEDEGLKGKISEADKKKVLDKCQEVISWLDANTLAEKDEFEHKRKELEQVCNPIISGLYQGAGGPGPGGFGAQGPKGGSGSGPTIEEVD
UniProt Q7L5Y9: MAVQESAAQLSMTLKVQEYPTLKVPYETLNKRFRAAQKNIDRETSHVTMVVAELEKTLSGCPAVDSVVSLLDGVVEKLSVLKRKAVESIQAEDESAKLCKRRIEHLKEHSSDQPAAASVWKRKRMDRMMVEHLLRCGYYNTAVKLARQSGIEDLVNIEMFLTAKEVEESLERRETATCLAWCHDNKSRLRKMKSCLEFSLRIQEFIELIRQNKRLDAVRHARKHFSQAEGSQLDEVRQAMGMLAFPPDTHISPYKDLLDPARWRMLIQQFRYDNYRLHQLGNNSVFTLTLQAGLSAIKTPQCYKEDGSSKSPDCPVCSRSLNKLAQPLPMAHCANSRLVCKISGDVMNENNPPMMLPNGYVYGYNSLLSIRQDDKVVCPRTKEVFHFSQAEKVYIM
UniProt Q8IY17: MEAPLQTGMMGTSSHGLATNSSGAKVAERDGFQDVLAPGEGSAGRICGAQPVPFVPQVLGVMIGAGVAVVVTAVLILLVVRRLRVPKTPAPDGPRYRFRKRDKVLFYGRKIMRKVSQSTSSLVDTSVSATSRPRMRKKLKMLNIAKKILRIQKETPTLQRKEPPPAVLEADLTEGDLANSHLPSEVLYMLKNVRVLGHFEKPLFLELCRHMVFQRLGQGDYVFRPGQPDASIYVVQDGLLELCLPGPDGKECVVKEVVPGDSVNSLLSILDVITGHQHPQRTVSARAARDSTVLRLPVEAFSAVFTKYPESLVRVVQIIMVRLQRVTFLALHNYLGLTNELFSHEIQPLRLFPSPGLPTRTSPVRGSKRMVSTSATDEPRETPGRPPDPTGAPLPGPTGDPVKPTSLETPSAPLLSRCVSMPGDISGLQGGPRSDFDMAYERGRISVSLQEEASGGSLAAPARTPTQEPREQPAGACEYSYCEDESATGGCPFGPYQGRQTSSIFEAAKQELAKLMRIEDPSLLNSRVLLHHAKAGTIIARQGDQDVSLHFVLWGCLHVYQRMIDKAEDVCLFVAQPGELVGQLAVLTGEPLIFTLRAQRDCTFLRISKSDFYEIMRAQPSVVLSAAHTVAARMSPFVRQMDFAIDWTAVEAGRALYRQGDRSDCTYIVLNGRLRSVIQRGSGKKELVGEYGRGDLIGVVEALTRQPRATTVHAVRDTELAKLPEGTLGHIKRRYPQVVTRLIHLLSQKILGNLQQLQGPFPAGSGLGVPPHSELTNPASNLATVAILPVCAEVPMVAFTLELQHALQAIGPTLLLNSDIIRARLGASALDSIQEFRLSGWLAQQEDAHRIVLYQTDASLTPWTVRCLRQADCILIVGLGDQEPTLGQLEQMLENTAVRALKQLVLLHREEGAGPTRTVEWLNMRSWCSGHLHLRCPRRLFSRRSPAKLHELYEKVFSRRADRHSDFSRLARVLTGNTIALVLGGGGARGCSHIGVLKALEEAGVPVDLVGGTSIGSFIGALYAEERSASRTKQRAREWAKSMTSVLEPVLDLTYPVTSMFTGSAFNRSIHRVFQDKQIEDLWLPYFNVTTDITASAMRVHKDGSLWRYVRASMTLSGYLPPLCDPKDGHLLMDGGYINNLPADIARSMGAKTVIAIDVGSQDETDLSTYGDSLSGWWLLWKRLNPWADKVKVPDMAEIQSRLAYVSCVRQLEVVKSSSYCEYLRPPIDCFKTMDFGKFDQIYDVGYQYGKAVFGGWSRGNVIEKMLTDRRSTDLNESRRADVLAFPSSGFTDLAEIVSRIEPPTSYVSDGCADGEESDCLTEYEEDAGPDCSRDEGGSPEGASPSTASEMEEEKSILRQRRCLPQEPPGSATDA
UniProt P61006: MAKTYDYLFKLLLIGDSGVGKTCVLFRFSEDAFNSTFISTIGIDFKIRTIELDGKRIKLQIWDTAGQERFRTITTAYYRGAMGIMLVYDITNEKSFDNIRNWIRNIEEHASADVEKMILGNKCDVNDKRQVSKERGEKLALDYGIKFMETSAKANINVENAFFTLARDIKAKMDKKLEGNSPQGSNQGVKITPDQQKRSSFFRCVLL
UniProt Q9UKG1: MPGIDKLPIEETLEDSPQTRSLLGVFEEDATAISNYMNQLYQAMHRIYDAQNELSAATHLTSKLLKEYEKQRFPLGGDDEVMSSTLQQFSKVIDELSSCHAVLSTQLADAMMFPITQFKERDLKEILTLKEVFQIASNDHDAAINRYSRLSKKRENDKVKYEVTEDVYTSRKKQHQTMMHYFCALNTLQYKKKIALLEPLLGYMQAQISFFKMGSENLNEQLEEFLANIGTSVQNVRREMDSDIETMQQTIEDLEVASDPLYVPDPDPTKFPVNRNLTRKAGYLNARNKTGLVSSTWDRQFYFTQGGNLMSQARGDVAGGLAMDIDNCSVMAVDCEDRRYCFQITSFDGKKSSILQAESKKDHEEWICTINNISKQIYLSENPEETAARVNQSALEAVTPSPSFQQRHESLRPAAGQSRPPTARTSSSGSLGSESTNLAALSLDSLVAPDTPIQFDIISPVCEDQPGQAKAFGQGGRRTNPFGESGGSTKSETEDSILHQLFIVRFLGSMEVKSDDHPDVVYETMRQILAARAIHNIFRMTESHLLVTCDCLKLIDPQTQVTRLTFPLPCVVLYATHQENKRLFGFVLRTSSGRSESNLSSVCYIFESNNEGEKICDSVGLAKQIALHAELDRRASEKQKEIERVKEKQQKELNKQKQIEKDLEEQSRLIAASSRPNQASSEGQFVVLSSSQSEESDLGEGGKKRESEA
UniProt P0CAP2, whole entry, looked up: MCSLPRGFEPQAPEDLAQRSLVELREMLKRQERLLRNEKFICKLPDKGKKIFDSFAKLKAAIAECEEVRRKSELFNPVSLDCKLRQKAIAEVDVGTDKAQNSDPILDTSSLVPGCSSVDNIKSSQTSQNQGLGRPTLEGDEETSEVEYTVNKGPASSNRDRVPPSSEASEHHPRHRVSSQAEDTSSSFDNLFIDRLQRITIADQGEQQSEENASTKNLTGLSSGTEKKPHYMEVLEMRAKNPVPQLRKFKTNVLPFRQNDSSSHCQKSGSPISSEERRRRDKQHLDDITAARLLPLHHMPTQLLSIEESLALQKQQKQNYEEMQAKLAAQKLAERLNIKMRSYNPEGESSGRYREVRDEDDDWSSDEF
UniProt O14672: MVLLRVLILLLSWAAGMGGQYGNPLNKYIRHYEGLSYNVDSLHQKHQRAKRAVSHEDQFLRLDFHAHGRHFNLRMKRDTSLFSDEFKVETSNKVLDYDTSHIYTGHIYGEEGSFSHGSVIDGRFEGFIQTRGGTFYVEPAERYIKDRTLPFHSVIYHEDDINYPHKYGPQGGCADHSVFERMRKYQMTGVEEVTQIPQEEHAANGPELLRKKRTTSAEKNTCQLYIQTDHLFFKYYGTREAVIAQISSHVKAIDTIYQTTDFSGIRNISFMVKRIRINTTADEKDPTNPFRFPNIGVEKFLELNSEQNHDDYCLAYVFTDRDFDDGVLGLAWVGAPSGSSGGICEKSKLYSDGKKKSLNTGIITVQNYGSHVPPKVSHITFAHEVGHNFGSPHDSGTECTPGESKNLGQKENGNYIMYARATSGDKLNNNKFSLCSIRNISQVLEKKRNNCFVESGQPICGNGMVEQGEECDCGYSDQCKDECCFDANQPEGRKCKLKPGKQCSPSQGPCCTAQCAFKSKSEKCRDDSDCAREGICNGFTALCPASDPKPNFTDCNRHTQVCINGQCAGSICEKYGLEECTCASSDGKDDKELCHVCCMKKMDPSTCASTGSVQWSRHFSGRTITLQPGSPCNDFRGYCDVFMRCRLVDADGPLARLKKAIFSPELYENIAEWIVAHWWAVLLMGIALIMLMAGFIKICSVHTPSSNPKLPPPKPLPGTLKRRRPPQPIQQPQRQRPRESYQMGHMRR
UniProt Q13283, whole entry, looked up: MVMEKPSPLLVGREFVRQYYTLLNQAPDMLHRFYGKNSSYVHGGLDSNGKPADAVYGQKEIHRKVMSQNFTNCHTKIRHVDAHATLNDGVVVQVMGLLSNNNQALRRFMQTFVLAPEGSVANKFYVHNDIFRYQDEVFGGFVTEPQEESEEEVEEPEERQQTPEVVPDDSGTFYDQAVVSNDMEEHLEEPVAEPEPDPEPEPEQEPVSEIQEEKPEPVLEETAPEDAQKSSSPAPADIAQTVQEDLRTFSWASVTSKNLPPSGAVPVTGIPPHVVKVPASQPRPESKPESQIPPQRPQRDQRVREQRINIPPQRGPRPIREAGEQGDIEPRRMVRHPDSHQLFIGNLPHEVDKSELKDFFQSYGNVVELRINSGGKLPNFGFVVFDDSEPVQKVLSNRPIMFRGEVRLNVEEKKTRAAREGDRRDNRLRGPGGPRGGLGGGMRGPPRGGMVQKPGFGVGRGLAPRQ
UniProt Q16718, whole entry: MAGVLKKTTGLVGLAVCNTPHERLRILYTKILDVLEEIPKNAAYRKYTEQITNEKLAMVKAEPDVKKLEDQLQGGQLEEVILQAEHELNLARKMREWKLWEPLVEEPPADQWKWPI
UniProt P84090, whole entry, looked up: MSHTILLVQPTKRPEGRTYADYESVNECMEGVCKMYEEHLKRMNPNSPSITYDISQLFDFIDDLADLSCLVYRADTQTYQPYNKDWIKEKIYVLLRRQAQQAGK
UniProt Q9Y5M8: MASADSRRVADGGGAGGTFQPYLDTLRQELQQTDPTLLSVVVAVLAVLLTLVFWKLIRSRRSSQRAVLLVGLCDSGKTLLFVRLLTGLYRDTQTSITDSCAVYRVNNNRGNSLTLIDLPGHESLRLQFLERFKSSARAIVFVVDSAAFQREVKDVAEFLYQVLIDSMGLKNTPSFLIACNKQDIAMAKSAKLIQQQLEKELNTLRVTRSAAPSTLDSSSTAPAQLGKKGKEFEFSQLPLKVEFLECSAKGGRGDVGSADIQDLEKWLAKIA
UniProt Q06830: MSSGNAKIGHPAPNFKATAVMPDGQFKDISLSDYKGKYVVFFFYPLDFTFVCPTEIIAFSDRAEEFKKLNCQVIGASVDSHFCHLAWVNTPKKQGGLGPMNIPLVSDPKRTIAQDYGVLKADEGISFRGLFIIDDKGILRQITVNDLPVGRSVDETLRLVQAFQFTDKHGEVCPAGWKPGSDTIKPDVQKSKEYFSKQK

Compound: [O-][N+](C(C1=C(C(O)=C2)NC(C(C=C3)=CC=C3Cl)C4C1C=CC4)=C2Cl)=O
Test: melting temperature shift (compound 7 minus DMSO); higher = compound stabilises the protein
Settings: 10 µM
Protocol: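 Thermal proteome profiling (TMT mass spectrometry) in intact DAOY medulloblastoma cells or DAOY lysates treated with 10 µM compound 7 or DMSO, heated at 10 temperatures from 40.5 to 73.8 °C for 3 min. Melting curves were fitted with the Bioconductor TPP package, and the melting point difference between compound and vehicle is reported per protein (single curve per condition).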

[1] = system: DAOY cell lysate, treatment time: 20 min, 4 °C
[2] = system: intact DAOY cells, treatment time: 90 min, 37 °C

Target | melting temperature shift [1] [°C] | melting temperature shift [2] [°C]
MRPS26 (UniProt Q9BYN8) | 2.63 | 0.0662
ERC1 (UniProt Q8IUD2) | -1.25 | -0.18
BECN1 (UniProt Q14457) | 0.669 | -0.632
ATP6V0A1 (UniProt Q93050) | 1.32 | 1.65
PDE4DIP (UniProt Q5VU43) | -1.09 | -0.846
PPP2R2A (UniProt P63151) | -0.804 | -0.359
UniProt P20226 | -1.03 | 
ROCK1 (UniProt Q13464) | -0.17 | 0.0317
SEC61A1 (UniProt P61619) | 1.18 | -1.49
TRAPPC1 (UniProt Q9Y5R8) | 0.137 | 1.2
UniProt O43516 | 0.354 | 
EMC10 (UniProt Q5UCC4) | 0.231 | 0.524
ATP2A2 (UniProt P16615) | 0.768 | -0.796
ECH1 (UniProt Q13011) | 0.965 | -0.353
NSFL1C (UniProt Q9UNZ2) | -0.952 | -0.266
WNK3 (UniProt Q9BYP7) |  | 1.06
NDUFA11 (UniProt Q86Y39) | 0.329 | -0.432
UniProt O60229 |  | -0.725
MRPL49 (UniProt Q13405) | 1.45 | -0.898
NSUN5 (UniProt Q96P11) | -0.0968 | -1.16
DYNC1LI1 (UniProt Q9Y6G9) | -0.883 | -0.351
PARL (UniProt Q9H300) | 1.49 | -0.13
NUDT4 (UniProt Q9NZJ9) | 0.0576 | 0.145
P0DMV9 (UniProt P0DMV8) | -0.421 | -0.126
MAEA (UniProt Q7L5Y9) | -1.32 | -2.89
PNPLA6 (UniProt Q8IY17) | 1.69 | 
RAB8A (UniProt P61006) | 2.55 | -0.445

Quoted at random: 3 records from the list.
Target | melting temperature shift [1] [°C] | melting temperature shift [2] [°C]
NDUFA11 (UniProt Q86Y39) | 0.329 | -0.432
BECN1 (UniProt Q14457) | 0.669 | -0.632
UniProt P20226 | -1.03 | 

Remaining list, next part

Target | melting temperature shift [1] [°C] | melting temperature shift [2] [°C]
APPL1 (UniProt Q9UKG1) | -0.723 | 0.438
NMI (UniProt Q13287) | -1.9 | 5.21
LYN (UniProt P07948) | 1.02 | -0.312
UniProt P0CAP2 | -1.5 | 0.514
UniProt Q8IVL6 | 1.27 | 0.171
MRPL53 (UniProt Q96EL3) | 1.26 | 1.33
ADAM10 (UniProt O14672) | 0.373 | -0.978
G3BP1 (UniProt Q13283) | 0.239 | -0.0908
PLEKHA2 (UniProt Q9HB19) | -0.542 | 
ARHGAP28 (UniProt Q9P2N2) |  | -1.44
DCUN1D1 (UniProt Q96GG9) | -0.53 | -0.374
NDUFA5 (UniProt Q16718) | 1.21 | 0.686
UniProt Q7Z7L9 | -1.84 | 
TMEM126B (UniProt Q8IUX1) | -0.132 | -3.61
KDM1A (UniProt O60341) | -0.0726 | -0.13
DDX46 (UniProt Q7L014) | -0.618 | -0.902
UniProt Q5TAP6 |  | -1.54
ZZEF1 (UniProt O43149) | 1.14 | -0.436
IDE (UniProt P14735) | -0.0662 | 0.434
UniProt Q96E39 | 2.05 | 1.38
UniProt Q9H496 | -0.203 | 
UniProt P84090 | 1.06 | 
SRPRB (UniProt Q9Y5M8) | 1.1 | -1.34
UPP1 (UniProt Q16831) | -1.02 | -0.334
MRPL16 (UniProt Q9NX20) |  | -2.52
UniProt Q06830 | 0.101 | 0.284
TBC1D17 (UniProt Q9HA65) | -0.447 | 

Single values are uncertain, as repeats are few or missing.
